Measurements as given in publication PMC9123286 (The Journal of Cell Biology, 2022).
These are yes or no findings as the source states them, for the method shown. In cells and extracts the contact can be indirect. A yes stands for co-enrichment or nearness to the bait. Other partners may have been found. Sequences can lack the tags named with a protein.

By UniProt entry, the sequences of proteins in these tests, tags left out.
UniProt Q01590: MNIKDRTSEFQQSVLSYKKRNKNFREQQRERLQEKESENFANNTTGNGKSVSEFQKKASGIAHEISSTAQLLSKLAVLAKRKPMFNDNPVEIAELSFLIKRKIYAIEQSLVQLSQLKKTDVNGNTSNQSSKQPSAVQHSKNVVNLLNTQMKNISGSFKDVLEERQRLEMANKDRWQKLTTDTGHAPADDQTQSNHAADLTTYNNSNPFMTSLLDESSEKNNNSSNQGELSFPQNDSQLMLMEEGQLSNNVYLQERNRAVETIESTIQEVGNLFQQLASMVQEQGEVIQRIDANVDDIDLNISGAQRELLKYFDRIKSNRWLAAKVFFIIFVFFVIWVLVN

T1: Get3 D57E F190D I193D-TEV-GFP (S. cerevisiae) (UniProt Q12154)
T1 sequence: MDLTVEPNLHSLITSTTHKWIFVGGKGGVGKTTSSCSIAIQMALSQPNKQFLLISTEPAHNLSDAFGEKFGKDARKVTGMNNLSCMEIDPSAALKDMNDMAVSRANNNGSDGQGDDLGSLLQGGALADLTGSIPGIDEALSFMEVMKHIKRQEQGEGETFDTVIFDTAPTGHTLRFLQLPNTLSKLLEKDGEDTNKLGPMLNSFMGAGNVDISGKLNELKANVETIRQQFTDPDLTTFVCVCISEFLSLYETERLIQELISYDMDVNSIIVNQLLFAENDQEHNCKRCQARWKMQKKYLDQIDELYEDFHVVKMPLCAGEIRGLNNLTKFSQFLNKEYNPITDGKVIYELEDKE

T2: Get3 D57E-TEV-GFP (S. cerevisiae, UniProt Q12154 1-354, D57E)
T2 construct: Get3, cytosolic ATPase of the GET pathway, S. cerevisiae; ATPase-impaired client trap variant D57E; Captured on anti-GFP beads and eluted by TEV cleavage; the oligomeric state in the lysate was not measured; also called Get3 DE; Get3 D57E (DE); source: yeast (BY4741 background), ectopically expressed, in lysate made without detergent; not shown: TEV site-GFP, C-terminal, kept
T2 sequence (looked up): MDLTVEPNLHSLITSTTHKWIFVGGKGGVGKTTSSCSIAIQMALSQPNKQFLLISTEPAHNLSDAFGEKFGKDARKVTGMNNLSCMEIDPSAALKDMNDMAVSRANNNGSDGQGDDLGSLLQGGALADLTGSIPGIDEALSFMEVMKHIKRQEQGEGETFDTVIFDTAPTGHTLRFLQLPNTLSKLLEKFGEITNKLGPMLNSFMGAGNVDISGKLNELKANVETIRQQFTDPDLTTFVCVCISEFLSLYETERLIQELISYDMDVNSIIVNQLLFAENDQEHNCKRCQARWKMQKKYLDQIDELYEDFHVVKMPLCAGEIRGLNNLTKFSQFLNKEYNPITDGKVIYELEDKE


Tests used:
[1] = target: T1, Get3 D57E F190D I193D-TEV-GFP (S. cerevisiae); test: affinity purification with mass spectrometry; Get3 variant-TEV-GFP captured from yeast lysate on anti-GFP MicroBeads, no detergent, 1 h at 4°C, eluted with TEV protease; eluates analysed by LC-MS/MS, three biological replicates
Get3 D57E-TEV-GFP = target: T2, Get3 D57E-TEV-GFP; test: as above

| binding [1] | binding (Get3 D57E-TEV-GFP) | Molecule |
| --- | --- | --- |
| binds | binds | Sed5 (from UniProt Q01590 1-340) |
| binds | binds | Sgt2 (protein, UniProt Q12118 1-346) MSASKEEIAALIVNYFSSIVEKKEISEDGADSLNVAMDCISEAFGFEREAVSGILGKSEFKGQHLADILNSASRVPESNKKDDAENVEINIPEDDAETKAKAEDLKMQGNKAMANKDYELAINKYTEAIKVLPTNAIYYANRAAAHSSLKEYDQAVKDAESAISIDPSYFRGYSRLGFAKYAQGKPEEALEAYKKVLDIEGDNATEAMKRDYESAKKKVEQSLNLEKTVPEQSRDADVDASQGASAGGLPDLGSLLGGGLGGLMNNPQLMQAAQKMMSNPGAMQNIQKMMQDPSIRQMAEGFASGGGTPNLSDLMNNPALRNMAGNLFGGAGAQSTDETPDNENKQ |
| binds | binds | N-terminally HA-tagged Erg1 (full length) (enzyme, S. cerevisiae, UniProt P32476 1-496, looked up, Erg1, squalene monooxygenase, S. cerevisiae; also called HA–Erg1; source: yeast, expressed from the endogenous ERG1 promoter (genomic) or ectopically in Δget3 cells, in lysate; not shown: HA, N-terminal, kept) MSAVNVAPELINADNTITYDAIVIGAGVIGPCVATGLARKGKKVLIVERDWAMPDRIVGELMQPGGVRALRSLGMIQSINNIEAYPVTGYTVFFNGEQVDIPYPYKADIPKVEKLKDLVKDGNDKVLEDSTIHIKDYEDDERERGVAFVHGRFLNNLRNITAQEPNVTRVQGNCIEILKDEKNEVVGAKVDIDGRGKVEFKAHLTFICDGIFSRFRKELHPDHVPTVGSSFVGMSLFNAKNPAPMHGHVILGSDHMPILVYQISPEETRILCAYNSPKVPADIKSWMIKDVQPFIPKSLRPSFDEAVSQGKFRAMPNSYLPARQNDVTGMCVIGDALNMRHPLTGGGMTVGLHDVVLLIKKIGDLDFSDREKVLDELLDYHFERKSYDSVINVLSVALYSLFAADSDNLKALQKGCFKYFQRGGDCVNKPVEFLSGVLPKPLQLTRVFFAVAFYTIYLNMEERGFLGLPMALLEGIMILITAIRVFTPFLFGELIG |
